This is an account of results in publication PMC8718691.

The chains behind the UniProt entries cited, without tags or fusion partners. Residues count along the entry.
UniProt P49841: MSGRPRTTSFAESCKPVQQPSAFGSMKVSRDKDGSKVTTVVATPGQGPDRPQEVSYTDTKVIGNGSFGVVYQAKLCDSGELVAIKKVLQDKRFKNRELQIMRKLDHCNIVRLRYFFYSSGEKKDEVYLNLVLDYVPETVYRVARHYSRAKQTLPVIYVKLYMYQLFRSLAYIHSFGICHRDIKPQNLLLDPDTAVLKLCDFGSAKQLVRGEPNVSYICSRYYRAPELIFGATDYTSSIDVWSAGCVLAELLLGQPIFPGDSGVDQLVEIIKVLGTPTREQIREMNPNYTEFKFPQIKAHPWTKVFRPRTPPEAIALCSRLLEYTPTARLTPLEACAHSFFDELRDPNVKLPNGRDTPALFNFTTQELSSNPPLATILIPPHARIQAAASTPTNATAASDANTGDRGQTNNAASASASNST
UniProt P46531, residues 19-2555: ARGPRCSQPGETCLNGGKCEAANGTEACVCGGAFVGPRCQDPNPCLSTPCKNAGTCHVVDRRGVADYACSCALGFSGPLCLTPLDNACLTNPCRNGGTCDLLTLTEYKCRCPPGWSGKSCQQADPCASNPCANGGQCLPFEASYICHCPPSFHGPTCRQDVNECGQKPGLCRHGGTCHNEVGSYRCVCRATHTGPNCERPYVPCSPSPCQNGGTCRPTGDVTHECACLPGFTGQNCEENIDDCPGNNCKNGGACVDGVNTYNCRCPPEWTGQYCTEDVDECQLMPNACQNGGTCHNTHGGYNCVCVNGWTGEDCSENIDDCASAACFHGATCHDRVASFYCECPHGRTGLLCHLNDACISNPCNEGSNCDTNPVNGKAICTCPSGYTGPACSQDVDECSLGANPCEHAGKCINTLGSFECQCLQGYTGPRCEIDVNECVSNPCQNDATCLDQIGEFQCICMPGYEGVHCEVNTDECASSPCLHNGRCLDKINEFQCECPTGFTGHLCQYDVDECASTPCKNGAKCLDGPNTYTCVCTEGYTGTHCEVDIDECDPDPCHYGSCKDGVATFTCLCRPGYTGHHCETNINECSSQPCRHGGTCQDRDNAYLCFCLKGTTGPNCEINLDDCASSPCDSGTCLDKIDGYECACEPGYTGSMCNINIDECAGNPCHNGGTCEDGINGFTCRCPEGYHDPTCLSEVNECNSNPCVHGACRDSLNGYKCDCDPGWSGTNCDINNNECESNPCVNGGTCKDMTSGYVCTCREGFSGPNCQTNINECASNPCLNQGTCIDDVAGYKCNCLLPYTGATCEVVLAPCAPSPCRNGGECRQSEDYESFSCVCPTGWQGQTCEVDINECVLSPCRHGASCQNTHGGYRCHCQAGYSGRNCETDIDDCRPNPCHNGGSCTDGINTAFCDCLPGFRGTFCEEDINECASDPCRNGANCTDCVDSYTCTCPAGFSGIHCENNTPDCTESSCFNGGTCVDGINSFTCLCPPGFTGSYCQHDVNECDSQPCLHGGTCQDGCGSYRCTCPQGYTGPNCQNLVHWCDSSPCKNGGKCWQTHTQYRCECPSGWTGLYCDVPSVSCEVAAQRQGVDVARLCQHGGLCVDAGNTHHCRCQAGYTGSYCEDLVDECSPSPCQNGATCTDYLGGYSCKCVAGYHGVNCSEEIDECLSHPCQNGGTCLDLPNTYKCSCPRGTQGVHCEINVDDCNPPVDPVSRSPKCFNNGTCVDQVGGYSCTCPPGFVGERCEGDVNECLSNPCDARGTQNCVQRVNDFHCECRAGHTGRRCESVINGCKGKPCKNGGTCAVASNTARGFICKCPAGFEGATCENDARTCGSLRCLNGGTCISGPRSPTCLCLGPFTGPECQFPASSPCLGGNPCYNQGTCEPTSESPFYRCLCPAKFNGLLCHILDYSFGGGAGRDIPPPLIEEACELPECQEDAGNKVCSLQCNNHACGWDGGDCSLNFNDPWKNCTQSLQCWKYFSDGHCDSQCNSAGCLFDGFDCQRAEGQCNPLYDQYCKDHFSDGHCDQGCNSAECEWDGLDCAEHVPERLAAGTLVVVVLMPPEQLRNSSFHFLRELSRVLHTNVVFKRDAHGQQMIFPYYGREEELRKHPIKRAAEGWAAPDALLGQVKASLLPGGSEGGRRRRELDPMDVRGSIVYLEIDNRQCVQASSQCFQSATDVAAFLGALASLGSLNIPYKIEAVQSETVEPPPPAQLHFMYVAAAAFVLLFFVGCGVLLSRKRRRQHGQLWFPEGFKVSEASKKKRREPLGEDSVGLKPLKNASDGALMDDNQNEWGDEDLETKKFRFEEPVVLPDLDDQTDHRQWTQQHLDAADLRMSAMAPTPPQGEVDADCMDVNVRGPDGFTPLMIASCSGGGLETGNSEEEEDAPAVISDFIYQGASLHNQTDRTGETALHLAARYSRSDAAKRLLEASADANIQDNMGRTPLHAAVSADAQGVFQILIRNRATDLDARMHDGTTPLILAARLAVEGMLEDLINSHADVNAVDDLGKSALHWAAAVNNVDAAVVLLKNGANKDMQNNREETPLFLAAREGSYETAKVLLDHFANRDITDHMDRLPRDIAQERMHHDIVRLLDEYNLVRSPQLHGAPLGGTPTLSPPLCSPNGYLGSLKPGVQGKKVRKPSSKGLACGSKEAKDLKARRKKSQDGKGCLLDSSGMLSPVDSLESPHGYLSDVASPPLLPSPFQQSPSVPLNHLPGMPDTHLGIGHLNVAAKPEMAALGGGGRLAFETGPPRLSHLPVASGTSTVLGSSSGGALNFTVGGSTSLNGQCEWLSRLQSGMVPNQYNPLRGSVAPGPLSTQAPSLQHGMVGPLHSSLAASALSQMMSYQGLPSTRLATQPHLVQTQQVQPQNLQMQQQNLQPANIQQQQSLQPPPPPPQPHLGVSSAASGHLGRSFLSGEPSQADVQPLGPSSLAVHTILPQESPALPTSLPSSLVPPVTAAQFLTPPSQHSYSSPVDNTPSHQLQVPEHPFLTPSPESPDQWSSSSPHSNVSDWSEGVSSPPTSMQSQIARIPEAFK
UniProt P23443: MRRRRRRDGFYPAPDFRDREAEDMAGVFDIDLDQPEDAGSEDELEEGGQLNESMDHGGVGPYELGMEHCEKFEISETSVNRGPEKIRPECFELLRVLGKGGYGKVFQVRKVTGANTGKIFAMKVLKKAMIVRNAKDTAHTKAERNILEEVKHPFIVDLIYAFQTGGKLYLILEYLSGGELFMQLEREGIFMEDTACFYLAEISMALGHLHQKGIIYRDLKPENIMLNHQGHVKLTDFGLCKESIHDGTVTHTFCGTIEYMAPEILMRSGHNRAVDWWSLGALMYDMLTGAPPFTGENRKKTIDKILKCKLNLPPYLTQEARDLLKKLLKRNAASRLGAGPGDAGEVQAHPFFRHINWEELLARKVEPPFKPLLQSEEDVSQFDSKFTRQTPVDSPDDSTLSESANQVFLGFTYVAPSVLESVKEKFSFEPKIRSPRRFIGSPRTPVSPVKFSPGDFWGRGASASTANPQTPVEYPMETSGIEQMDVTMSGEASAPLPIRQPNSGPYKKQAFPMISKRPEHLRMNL

Results are given in words; binding and its absence hold for the method and conditions named. In cells and extracts the contact can be indirect. Here binding means that the protein was enriched with, or labelled near, the bait; the list need not be complete.

This experiment addresses Glycogen synthase kinase 3β (human (endogenous in HuT78 and primary PBL T-cells)) (UniProt P49841). Kind of experiment: affinity purification with mass spectrometry; anti-GSK3β immunoprecipitates from lysates (2 mg protein each) of resting or LFA-1/ICAM-1-stimulated migrating HuT78 T-cells; native gel, in-gel trypsin digest, LC-ESI-MS/MS, Mascot search against UniProt Human.

Regarding “Notch1 (from UniProt P46531 19-2555) (receptor)”, the binding result is recorded as “binds”.

With “ribosomal protein S6 kinase beta-1 (from UniProt P23443 1-525) (enzyme)”, the binding result was “binds”.

B1: caspase recruitment domain-containing protein 11 (protein, UniProt Q9BXL7 1-1154)
chain: MPGGGPEMDDYMETLKDEEDALWENVECNRHMLSRYINPAKLTPYLRQCKVIDEQDEDEVLNAPMLPSKINRAGRLLDILHTKGQRGYVVFLESLEFYYPELYKLVTGKEPTRRFSTIVVEEGHEGLTHFLMNEVIKLQQQMKAKDLQRCELLARLRQLEDEKKQMTLTRVELLTFQERYYKMKEERDSYNDELVKVKDDNYNLAMRYAQLSEEKNMAVMRSRDLQLEIDQLKHRLNKMEEECKLERNQSLKLKNDIENRPKKEQVLELERENEMLKTKNQELQSIIQAGKRSLPDSDKAILDILEHDRKEALEDRQELVNRIYNLQEEARQAEELRDKYLEEKEDLELKCSTLGKDCEMYKHRMNTVMLQLEEVERERDQAFHSRDEAQTQYSQCLIEKDKYRKQIRELEEKNDEMRIEMVRREACIVNLESKLRRLSKDSNNLDQSLPRNLPVTIISQDFGDASPRTNGQEADDSSTSEESPEDSKYFLPYHPPQRRMNLKGIQLQRAKSPISLKRTSDFQAKGHEEEGTDASPSSCGSLPITNSFTKMQPPRSRSSIMSITAEPPGNDSIVRRYKEDAPHRSTVEEDNDSGGFDALDLDDDSHERYSFGPSSIHSSSSSHQSEGLDAYDLEQVNLMFRKFSLERPFRPSVTSVGHVRGPGPSVQHTTLNGDSLTSQLTLLGGNARGSFVHSVKPGSLAEKAGLREGHQLLLLEGCIRGERQSVPLDTCTKEEAHWTIQRCSGPVTLHYKVNHEGYRKLVKDMEDGLITSGDSFYIRLNLNISSQLDACTMSLKCDDVVHVRDTMYQDRHEWLCARVDPFTDHDLDMGTIPSYSRAQQLLLVKLQRLMHRGSREEVDGTHHTLRALRNTLQPEEALSTSDPRVSPRLSRASFLFGQLLQFVSRSENKYKRMNSNERVRIISGSPLGSLARSSLDATKLLTEKQEELDPESELGKNLSLIPYSLVRAFYCERRRPVLFTPTVLAKTLVQRLLNSGGAMEFTICKSDIVTRDEFLRRQKTETIIYSREKNPNAFECIAPANIEAVAAKNKHCLLEAGIGCTRDLIKSNIYPIVLFIRVCEKNIKRFRKLLPRPETEEEFLRVCRLKEKELEALPCLYATVEPDMWGSVEELLRVVKDKIGEEQRKTIWVDEDQL
For B1, the binding result is listed as “binds”.
